PubChem BioAssay AID504804 – Drosophila RNAi Screening Center, 2011
Screen: 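Fly genes whose loss lessens doxorubicin-driven cell death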 (primary screen). Cells: Drosophila Kc cells. Knock-down reagent: long dsRNA against Drosophila genes, 0.5 µg dsRNA per well. Time to read-out: 96 h (48 h knock-down, then 48 h drug). Challenge: doxorubicin 5 µg/ml for 48 h, added 48 h after dsRNA. Read-out: 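Luminescent ATP counts per replicate, not normalised, reflecting viable cells after 48 h dsRNA knock-down followed by 48 h of 5 µg/ml doxorubicin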. Scale: raw ATP luminescence: higher = more viable cells, protection from doxorubicin. Hit rule: 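z-score of 2 or more over plate mean in both duplicates, retained only when retests and separate dsRNAs confirm the protection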.
The screen tested about 19,000 reagents; this is an unselected part of those that have a named target and a result. In the full data, 47 (0.25%) got an active call. 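Signals are raw, not normalised; exact z-scores behind calls not deposited; actives needed confirmation, so some wells reaching 2 SD are inactive.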 Names joined by + are all predicted targets of the reagent.

How did the screen score CG5704 [DRSC08572]?
raw ATP luminescence, replicate 1: 51493; raw ATP luminescence, replicate 2: 44760; call: inactive

How did the screen score CG16813 [DRSC02520]?
raw ATP luminescence, replicate 1: 66310; raw ATP luminescence, replicate 2: 82833; call: inactive

For SiaT [DRSC04494], what does the deposit list?
raw ATP luminescence, replicate 1: 57230; raw ATP luminescence, replicate 2: 50847; call: inactive

With alpha-Man-IIa [DRSC15393], what was measured?
raw ATP luminescence, replicate 1: 57200; raw ATP luminescence, replicate 2: 56800; call: inactive

Which result is listed for Myo95E [DRSC15821]?
raw ATP luminescence, replicate 1: 51320; raw ATP luminescence, replicate 2: 43390; call: inactive

What is on record for CG1631 [DRSC20535]?
raw ATP luminescence, replicate 1: 3.57e5; raw ATP luminescence, replicate 2: 2.51e5; call: inactive

For cpo [DRSC13265], what does the deposit list?
raw ATP luminescence, replicate 1: 2.40e5; raw ATP luminescence, replicate 2: 2.28e5; call: inactive

For PGRP-SC1a [DRSC06482], what does the deposit list?
raw ATP luminescence, replicate 1: 42480; raw ATP luminescence, replicate 2: 77763; call: inactive

How did the screen score Whamy [DRSC14574]?
raw ATP luminescence, replicate 1: 55657; raw ATP luminescence, replicate 2: 52630; call: inactive

For JMJD6 [DRSC15787], what does the deposit list?
raw ATP luminescence, replicate 1: 45093; raw ATP luminescence, replicate 2: 56903; call: inactive

With Ptpa [DRSC00776], what was measured?
raw ATP luminescence, replicate 1: 1.19e5; raw ATP luminescence, replicate 2: 58300; call: inactive

For yip3 [DRSC04724], what was measured?
raw ATP luminescence, replicate 1: 35940; raw ATP luminescence, replicate 2: 45627; call: inactive

Part of the list above in another layout:
predicted target,amplicon,"raw ATP luminescence, replicate 1","raw ATP luminescence, replicate 2",call
Ptpa,DRSC00776,1.19e5,58300,inactive
yip3,DRSC04724,35940,45627,inactive

Additional results:
How did the screen score uif [DRSC00963]?
raw ATP luminescence, replicate 1: 2.69e5; raw ATP luminescence, replicate 2: 3.15e5; call: inactive

What did the screen give for uif [DRSC03427]?
raw ATP luminescence, replicate 1: 33830; raw ATP luminescence, replicate 2: 44077; call: inactive

How did the screen score CG42518 + MED9 [DRSC06917]?
raw ATP luminescence, replicate 1: 49763; raw ATP luminescence, replicate 2: 64407; call: inactive

How did the screen score Eaf [DRSC05050]?
raw ATP luminescence, replicate 1: 52817; raw ATP luminescence, replicate 2: 46863; call: inactive

Which result is listed for Eaf [DRSC06052]?
raw ATP luminescence, replicate 1: 52243; raw ATP luminescence, replicate 2: 71420; call: inactive

With msps [DRSC17004], how do the results read?
raw ATP luminescence, replicate 1: 36517; raw ATP luminescence, replicate 2: 47087; call: inactive

With SERCA [DRSC04600], what was measured?
raw ATP luminescence, replicate 1: 67027; raw ATP luminescence, replicate 2: 61547; call: inactive

What did the screen give for bru1 [DRSC01234]?
raw ATP luminescence, replicate 1: 1.02e5; raw ATP luminescence, replicate 2: 90080; call: inactive

Which result is listed for bru1 [DRSC01236]?
raw ATP luminescence, replicate 1: 1.68e5; raw ATP luminescence, replicate 2: 1.37e5; call: inactive

How did the screen score bru1 [DRSC01237]?
raw ATP luminescence, replicate 1: 2.73e5; raw ATP luminescence, replicate 2: 2.46e5; call: inactive

With bru1 [DRSC01238], what was measured?
raw ATP luminescence, replicate 1: 3.00e5; raw ATP luminescence, replicate 2: 3.30e5; call: inactive

For bru1 [DRSC03485], what does the deposit list?
raw ATP luminescence, replicate 1: 70840; raw ATP luminescence, replicate 2: 57963; call: inactive

With simj [DRSC10942], what was measured?
raw ATP luminescence, replicate 1: 42350; raw ATP luminescence, replicate 2: 51590; call: inactive

For Ugt50B3 [DRSC04778], what does the deposit list?
raw ATP luminescence, replicate 1: 76270; raw ATP luminescence, replicate 2: 90610; call: inactive

How did the screen score Ugt50B3 [DRSC04779]?
raw ATP luminescence, replicate 1: 89863; raw ATP luminescence, replicate 2: 99123; call: inactive

What did the screen give for CG4830 [DRSC15657]?
raw ATP luminescence, replicate 1: 54260; raw ATP luminescence, replicate 2: 53753; call: inactive

How did the screen score CG2126 [DRSC15418]?
raw ATP luminescence, replicate 1: 59030; raw ATP luminescence, replicate 2: 28360; call: inactive

For CG7768 [DRSC10914], what was measured?
raw ATP luminescence, replicate 1: 25237; raw ATP luminescence, replicate 2: 21137; call: inactive

With pre-mod(mdg4)-W + pre-mod(mdg4)-Y + mod(mdg4) + 3 more [DRSC16328], how do the results read?
raw ATP luminescence, replicate 1: 26720; raw ATP luminescence, replicate 2: 25300; call: inactive

For CG3862 [DRSC00631], how do the results read?
raw ATP luminescence, replicate 1: 1.35e5; raw ATP luminescence, replicate 2: 69657; call: inactive

For CG13096 [DRSC02198], what does the deposit list?
raw ATP luminescence, replicate 1: 34960; raw ATP luminescence, replicate 2: 64897; call: inactive

Which result is listed for Kal1 [DRSC15983]?
raw ATP luminescence, replicate 1: 55023; raw ATP luminescence, replicate 2: 51307; call: inactive

What is on record for CG14696 [DRSC14919]?
raw ATP luminescence, replicate 1: 59363; raw ATP luminescence, replicate 2: 47750; call: inactive

For CG42268 [DRSC10171], what does the deposit list?
raw ATP luminescence, replicate 1: 85573; raw ATP luminescence, replicate 2: 74720; call: inactive

What did the screen give for CG42268 [DRSC10702]?
raw ATP luminescence, replicate 1: 84090; raw ATP luminescence, replicate 2: 81093; call: inactive
